Measured values reported in patent US8815213B2, “RGD-(bacterio)chlorophyll conjugates for photodynamic therapy and Imaging of Necrotic tumors” (Yeda Research and Development Co. Ltd., priority 2008, dated 2014).
Structures can show the parent of a compound that is named as a salt. Part of at least one peptide drawing is inferred or uncertain, most often the ends.

Experiments:
[1] = test system: MDA-MB-231-RFP tumors; assay: In-vivo PDT of MDA-MB-231-RFP tumors; design: species or system nude CD-1 mice
[2] = Intrinsic fluorescence in the near infra red (glowing ability); format: physicochemical; conditions: NIR fluorescence

For CC[C@H]1c2cc3[nH]c(c(CC(=O)OC)c4nc(cc5[nH]c(cc(n2)[C@@H]1C)c(C(C)=O)c5C)[C@@H](C)[C@@H]4CCC(=O)NCCCC[C@@H]1NC(=O)[C@@H](Cc2ccccc2)NC(=O)[C@H](CC(=O)O)NC(=O)CNC(=O)[C@H](CCCNC(=N)N)NC1=O)c(C(=O)NCCS(=O)(=O)O)c3C [compound 13, 3^1-oxo-15-methoxycarbonylmethyl-Rhodobacteriochlorin 13^1-(2-sulfoethyl) amide-17^3-c(RGDfK)amide potassium salt], the “Comments (response to PDT)” value ([1]; Necrotic, treatment time 8 h, 7.5 mg/kg, illumination 10 min, 100 mW, potassium salt) was “Full and Limited”, the “Comments (response to PDT)” value ([1]; Non-necrotic, treatment time 8 h, 7.5 mg/kg, illumination 10 min, 100 mW, potassium salt) was “full cure and Full and Limited and No and Death with” and the “Comments (response to PDT)” value ([1]; Non-necrotic, treatment time 8 h, 15 mg/kg, illumination 10 min, 100 mW) was “Death with”. The “Comments (response to PDT)” value ([1]; Non-necrotic, treatment time 24 h, 15 mg/kg, illumination 30 min, 280 mW) was “No”, the “tumor RFP fluorescence signal after PDT” value ([1]; non-necrotic tumor, 7.5 mg/kg, illuminated 8 h later, after 90 days) was “no tumor fluorescence signal” and the “glowing ability relative to compound 24” value [2] was “three orders of magnitude higher”.
